PubChem BioAssay AID1259254, NCATS – 2017

- Assay: 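Gene knock-downs that lead to re-replication, shown by excess G2 DNA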 (primary screen)
- Cell system: human HCT116 colorectal cancer cells
- Reagent: single siRNA against human genes
- Timing: 3 days
- Measurement: 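Nuclei stained with Hoechst and imaged; cell-cycle phase assigned by DNA content; G2 share scaled per plate, non-targeting siRNA 0%, GMNN siRNA 100%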
- Direction: G2 robust z-score: higher = more G2 cells, more excess DNA replication
- Call rule: 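Active siRNAs have a G2 robust z of 5 or more median absolute deviations over the median, which in these data means about 38% or higher of GMNN control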
In all, the deposit lists about 59,000 reagents; this is a part drawn at random. About 1,550 of all reagents (2.6%) were called active. 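G2 share is only a proxy for re-replication; each gene was hit by three separate siRNAs, and active genes were retested.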 Unmarked entries are inactive. The numbers tell different reagents against one gene apart. Further read-outs or replicates are left out here. The record does not give: the amount of reagent.

G2 robust z-score, by target gene and reagent
CD58: #1 4.64; #2 -0.436; #3 2.03
INSIG2: #1 -0.244; #2 -0.181; #3 -0.494
DIABLO: #1 -0.165; #2 2.45; #3 -1.09
PMS2: #1 0.413; #2 0.817; #3 -0.814
THPO: #1 -0.78; #2 0.457; #3 0.413
SFXN5: #1 0.994; #2 -0.198; #3 -0.343
ZNF513: #1 1.88; #2 0.899; #3 1.45
SIN3A: #1 5.93 (active); #2 4.55; #3 2.82
SUCLG1: #1 -0.27; #2 1.32; #3 5.27 (active)
TEAD4: #1 1.19; #2 -1.04; #3 0.893

Records listed so far whose gene name begins with P or p (3):
G2 robust z-score, by target gene and reagent
PMS2: #1 0.413; #2 0.817; #3 -0.814
